# Test results taken from PubChem BioAssay AID1439 (NMMLSC, 2008).
# By UniProt entry, the sequences of proteins in these tests, tags left out.
# UniProt P09471, whole entry, looked up: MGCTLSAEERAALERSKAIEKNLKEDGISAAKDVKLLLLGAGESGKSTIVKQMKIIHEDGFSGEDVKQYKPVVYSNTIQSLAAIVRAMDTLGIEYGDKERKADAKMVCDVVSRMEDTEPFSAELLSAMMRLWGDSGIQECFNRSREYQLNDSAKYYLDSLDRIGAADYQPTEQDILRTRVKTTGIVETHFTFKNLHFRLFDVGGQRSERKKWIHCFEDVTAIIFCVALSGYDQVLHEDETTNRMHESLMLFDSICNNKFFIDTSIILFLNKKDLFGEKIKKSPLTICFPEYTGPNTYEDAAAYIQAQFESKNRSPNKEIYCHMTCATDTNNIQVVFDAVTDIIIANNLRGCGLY
# The campaign covered roughly 220,000 compounds. About 770 (0.35%) were called active. The shares of active, inactive and inconclusive entries below differ from those in the screen. No stated cut-off is given here; in the data, active means binding response below about 49% or above about 150%; inconclusive means no clear call, values can overlap the other calls; inactive means in between.
# Biological target: Guanine nucleotide-binding protein G(o) subunit alpha (Homo sapiens) (UniProt P09471)
# Experiment: RGS7-Galphao binding modulators, primary screen, biochemical, multiplexed bead flow cytometry (AID 1439);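 further: fluorescent Galphao held in activated GDP-AlF4 state binding bead-coupled RGS7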
# Conditions: at 10 µM, actives lie on both sides
row,SMILES,binding response (% of control)
1,NS(=O)(=O)c1ccc(NC(=S)NCCc2ccccc2)cc1,inconclusive: 96.5%
2,c1ccc2[nH]c(NCc3ccc4c(c3)OCO4)nc2c1,inactive: 86.1%
3,NNC(=S)Nc1cccc(-c2n[nH]c(=S)o2)c1,inconclusive: 94.3%
4,CCn1c(=N)n(CC(=O)c2cccc(OC)c2)c2ccccc21,inactive: 96.8%
5,Cc1ccc(C(=O)Nc2ccc(S(=O)(=O)N3CCCC3)cc2)s1,inconclusive: 108%
6,CCOc1ccc(CCNC(=O)c2cc3ccccn3n2)cc1OCC,inactive: 106%
7,S=c1[nH]nc(-c2ccccn2)n1/N=C/c1ccco1,inconclusive: 99.9%
8,O=C(COC(=O)/C=C/c1ccccc1[N+](=O)[O-])NCC1CCCO1 (stereo unspecified),inconclusive: 112%
9,C=CCc1c(C)c(C#N)c2nc3ccccc3n2c1N1CCCCC1,inconclusive: 98.1%
10,CS(=O)(=O)Nc1nc2ccccc2[nH]1,inconclusive: 145%
11,CCCn1c(SCC(=O)Nc2ccccc2Oc2ccccc2)n[nH]c1=O,inactive: 84.3%
12,COc1ccccc1CNC(=O)c1cc(C)nn1-c1ccccc1,inconclusive: 127%
13,COC(C(=O)NNC(=O)Cc1ccc(Cl)cc1)c1ccccc1 (stereo unspecified),inconclusive: 157%
14,CCN(CC)S(=O)(=O)c1cc(NC(=O)NCCCl)ccc1C,inconclusive: 42.5%
15,COc1ccccc1NC(=O)c1coc(=O)c(Br)c1,inconclusive: 113%
16,CCCCNC(=O)Nc1ccc(C2SCCS2)cc1,inconclusive: -108%
17,O=C(/C=C/c1ccc(Cl)cc1)Nc1ccc(S(=O)(=O)Nc2ncccn2)cc1,inconclusive: 73.3%
18,COc1ccccc1C(=O)COC(=O)c1ccc(N(C)C)cc1,inconclusive: 92%
19,C=CC[n+]1c(C)csc1Nc1cccc(Br)c1,inconclusive: 86.5%
20,N#Cc1nc(-c2cccc3ccccc23)oc1NCC1CCCO1 (stereo unspecified),inconclusive: 148%
21,O=C(Nc1ccc(F)cc1F)c1csc(-c2ccccc2)n1,inconclusive: 117%

# Entries above that contain two or more sulfur atoms:
row,SMILES,binding response (% of control)
1,NS(=O)(=O)c1ccc(NC(=S)NCCc2ccccc2)cc1,inconclusive: 96.5%
3,NNC(=S)Nc1cccc(-c2n[nH]c(=S)o2)c1,inconclusive: 94.3%
5,Cc1ccc(C(=O)Nc2ccc(S(=O)(=O)N3CCCC3)cc2)s1,inconclusive: 108%
16,CCCCNC(=O)Nc1ccc(C2SCCS2)cc1,inconclusive: -108%

# The results go on.

row,SMILES,binding response (% of control)
1,O=C(COc1ccc(Cl)cc1Cl)NN1C(=O)C2C3C=CC(C3)C2C1=O (stereo unspecified),inconclusive: 76.6%
2,Cc1cc(/C=C2\Sc3ccccc3N2C)cc(C)[n+]1CC1CCCO1 (stereo unspecified),inconclusive: 112%
3,O=C(NCc1ccc2c(c1)OCO2)Nc1ccc2ccccc2c1,inconclusive: 92.2%
4,O=C(NC1CCCCC1)c1ccc(CNc2ccccc2)o1,inactive: 98.1%
5,Cc1[nH]n(-c2ccccc2)c(=O)c1C=NCc1ccncc1,inconclusive: 55.6%
6,CCCC(=O)Nc1cccc(NC(=O)c2cccc([N+](=O)[O-])c2C)c1,inactive: 109%
7,O=C(C1CCN(C2CCN(Cc3ccc4cc(F)ccc4n3)CC2)CC1)N1CCCC1,inactive: 106%
8,Nc1c(S(=O)(=O)c2ccccc2)c2nc3ccccc3nc2n1C1CC1,inconclusive: 90%
9,Oc1c(C=Nc2ccc(Cl)cn2)sc2ccccc12,inconclusive: 90.5%
10,CC1OC(Oc2c(-c3cc(O)c(O)c(O)c3)oc3cc(O)cc(O)c3c2=O)C(O)C(O)C1O (stereo unspecified),inconclusive: 200%
11,COc1ccc(/C=c2\sc3nc(=O)c(C)nn3c2=O)c(OC)c1,inconclusive: 113%
12,Cc1onc(-c2c(F)cccc2Cl)c1C(=O)OCC(=O)c1c(N)n(C)c(=O)n(C)c1=O,inconclusive: 86.4%
13,O=C(CN(C(=O)c1ccccc1Cl)N1C(=O)C2C3C=CC(C3)C2C1=O)c1cccs1 (stereo unspecified),inconclusive: 103%
14,COC(=O)CN1C2=NCCCN2c2ccccc21,inactive: 88.2%
15,Cc1ccc(Cl)c(NC(=O)CCl)c1Cl,inconclusive: 109%
16,CCCCNC(=O)C(Sc1ccccc1)c1ccccc1 (stereo unspecified),inactive: 109%
17,Cn1cnc([N+](=O)[O-])c1SCC(O)CN1CCCCC1 (stereo unspecified),inconclusive: 98.7%
18,NC1=NC(=O)C2(COC(c3cccnc3)OC2)S1 (stereo unspecified),inactive: 98.4%
19,O=C(Nc1csc([N+](=O)[O-])c1)Nc1c(Cl)cccc1Cl,inconclusive: 96.3%
20,Cc1cccn2c(CNC3CCCc4ccccc43)c(C(=O)N3CCOCC3)nc12 (stereo unspecified),inconclusive: 177%
21,COc1ccc(CN=C2NN=C(c3cccc(OC)c3)CS2)cc1,inconclusive: 104%

row,SMILES,binding response (% of control)
1,O=C(NCc1ccco1)c1cc([N+](=O)[O-])ccc1N1CCOCC1,inactive: 101%
2,Cc1ccnc2nc(C(=O)N3CCN(c4ccc(F)cc4)CC3)nn12,inactive: 97.5%
3,CCC(=O)NC(=S)NNC(=O)c1ccc(O)cc1,inactive: 98.2%
4,Cc1cc(=S)c2ccccc2[nH]1,inconclusive: 88.9%
5,O=Nc1c(O)n(Cc2cccc(C(F)(F)F)c2)c2ccccc12,inactive: 105%
6,COc1cc2c(c(OC)c1OC)-c1c(cc3c(c1OC)OCO3)C[C@H](C)[C@@](C)(O)C2,inconclusive: 111%
7,O=C(NCc1ccccc1Cl)c1ccc2c(c1)SC1=NS(=O)(=O)CCN12,inconclusive: 91.8%
8,Cc1cc(C(=O)O)ccc1-c1ccc(/C=C2\NC(=O)N(Cc3ccc(F)cc3)C2=O)o1,inconclusive: 86.4%
9,O=C1C2C3C=CC(C4CC34)C2C(=O)N1c1ccc2c(c1)OCO2 (stereo unspecified),inactive: 100%
10,CC1=C(C(=O)OC(C)C)C(c2ccc(C)o2)C(C(=O)OC(C)C)=C(C)N1,inconclusive: 107%
11,O=C(CCn1c(=S)oc2ccccc21)NC1CCCCCCC1,inconclusive: 87.8%
12,Cc1nc(N2CCCCC2)sc1C(=O)c1ccc(Cl)c([N+](=O)[O-])c1,inconclusive: 92.3%
13,CN(C)S(=O)(=O)c1cccc(NC(=S)N2CCc3ccccc32)c1,inconclusive: 75.4%
14,CN(NC1OC(=O)c2ccccc21)c1ccc(Cl)cc1[N+](=O)[O-] (stereo unspecified),inconclusive: 83.4%
15,CCOC(=O)CCCNC(=O)CSc1nc2ccc(OCC)cc2[nH]1,inconclusive: 84.2%
16,CCOc1ccc(/C=C/C(=O)c2ccccc2)cc1,inconclusive: 246%
17,CCCCn1cc([N+](=O)[O-])nc1C,inconclusive: 109%
18,N#CCCN(Cc1ccccc1)C(=O)Nc1ccc(F)cc1,inconclusive: 70.4%
19,Cc1ccc([N+](=O)[O-])c(C(=O)N/N=C/c2cccs2)c1,inconclusive: 116%
